Taken from: PubChem BioAssay AID652272 (Drosophila RNAi Screening Center, 2013)

Test: 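Finding fly genes that regulate Hedgehog signal transduction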 (primary screen)
Cells: Drosophila clone 8 (Cl8) cells
Knock-down reagent: long dsRNA against Drosophila genes
Read-out: 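Firefly light from a Hedgehog-responsive ptc promoter reporter and Renilla reference light, both read on a plate reader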
Reading the numbers: firefly Hh reporter signal: higher = more ptc reporter light; Renilla reference signal: higher = more Renilla control light
Active means: 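Hit when the z-score averaged over two replicates is under -2 or over +3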
Meaning of the calls: active = hit: reporter lowered or raised; inactive = not a hit
In all, the deposit lists about 21,000 reagents; below is a random part of those with a known target gene and a result. In the full data, 503 (2.4%) were called active. 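Raw plate light values, not normalised; calls rest on replicate z-scores that were not deposited; hits include reporter decreases as well as increases.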 A number with no mark means an inactive call. Reagent sequences are not shown. Not given: the amount of reagent, the time to read-out.

no.	gene	firefly Hh reporter signal, replicate 1	firefly Hh reporter signal, replicate 2	firefly Hh reporter signal, replicate 3	Renilla reference signal, replicate 1	Renilla reference signal, replicate 2
1	daw	78641	73670		3591	3101
2	SkpC	1.12e5	3.05e5		3355	13824
3	CG33178	70145	2.35e5		1156	10080
4	RpL4	35453 (active)	23873		1180	1547
5	CG14118	29693	42386	43831	4640	3547
6	beg	75744	70064		3322	2761
7	CG17834	58112	81351		2738	3496

Active calls (from the list above):
gene	firefly Hh reporter signal, replicate 1	firefly Hh reporter signal, replicate 2	firefly Hh reporter signal, replicate 3	Renilla reference signal, replicate 1	Renilla reference signal, replicate 2
RpL4	35453 (active)	23873		1180	1547

The results go on:
no.	gene	firefly Hh reporter signal, replicate 1	firefly Hh reporter signal, replicate 2	firefly Hh reporter signal, replicate 3	Renilla reference signal, replicate 1	Renilla reference signal, replicate 2
8	Notum	1.10e5			1650	3056
9	orb	43927	25440		1848	1163
10	CG34040	1.52e5	1.85e5		3930	8699
11	CG7872	94784	71571		2336	1778
12	Naxe	67253	1.33e5		1467	5954
13	CG7148	89984	59145		3952	2690
14	CG15882	73664	1.95e5		1232	7794
15	CG8300	77504	48618		2157	1292
16	Acsf2	1.07e5	45165		3643	4213
17	Cyp28c1	74936	2.33e5		1963	8219
18	ZnT35C	1.31e5	55643		3204	4951
19	CG7772	1.61e5	1.46e5		3984	3740
20	CG17440	83317	2.39e5		2164	8906
21	Dph3	75093	1.03e5		2609	2616
22	Zpr1	95216	79008		2272	1911
23	mre11	1.59e5	8.28e5	1.49e5	5949	45056
